Measurements taken from paper PMC10079970.
Numbering of substitutions follows the chain as printed. No constants are given. Whether binding was seen depends on the method and setting. In cells and extracts the contact can be indirect. Some binding calls cover weakened binding; strength is not graded here. Sequences can lack the tags named with a protein.

Chains of the proteins cited; added tags and fusions are not shown. Residues count along the entry.
UniProt O95299, residues 36-355: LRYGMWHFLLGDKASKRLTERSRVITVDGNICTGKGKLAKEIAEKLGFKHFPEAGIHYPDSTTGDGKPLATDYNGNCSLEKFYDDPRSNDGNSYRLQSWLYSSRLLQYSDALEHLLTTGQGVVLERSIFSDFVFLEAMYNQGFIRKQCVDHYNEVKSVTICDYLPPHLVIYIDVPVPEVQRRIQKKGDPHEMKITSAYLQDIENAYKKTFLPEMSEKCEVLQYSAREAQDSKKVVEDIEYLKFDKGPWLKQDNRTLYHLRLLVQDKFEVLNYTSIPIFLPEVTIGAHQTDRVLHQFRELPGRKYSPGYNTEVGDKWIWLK
UniProt P11142: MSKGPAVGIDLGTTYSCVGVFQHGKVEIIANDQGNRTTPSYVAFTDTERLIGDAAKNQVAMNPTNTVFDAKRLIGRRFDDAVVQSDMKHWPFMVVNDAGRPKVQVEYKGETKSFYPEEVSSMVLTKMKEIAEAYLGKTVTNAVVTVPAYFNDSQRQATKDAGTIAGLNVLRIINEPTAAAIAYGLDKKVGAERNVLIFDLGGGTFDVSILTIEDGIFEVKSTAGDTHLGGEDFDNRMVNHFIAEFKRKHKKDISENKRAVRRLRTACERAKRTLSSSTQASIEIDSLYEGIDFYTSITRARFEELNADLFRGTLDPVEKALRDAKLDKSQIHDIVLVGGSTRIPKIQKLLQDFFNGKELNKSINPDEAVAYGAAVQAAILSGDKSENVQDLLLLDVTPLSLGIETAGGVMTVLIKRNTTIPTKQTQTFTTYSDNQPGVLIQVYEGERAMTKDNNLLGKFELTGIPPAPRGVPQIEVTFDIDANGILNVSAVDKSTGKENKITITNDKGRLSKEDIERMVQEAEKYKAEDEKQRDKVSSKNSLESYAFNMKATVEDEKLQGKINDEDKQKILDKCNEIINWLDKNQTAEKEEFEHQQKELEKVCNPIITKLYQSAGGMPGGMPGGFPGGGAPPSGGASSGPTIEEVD
UniProt P10809, residues 27-573: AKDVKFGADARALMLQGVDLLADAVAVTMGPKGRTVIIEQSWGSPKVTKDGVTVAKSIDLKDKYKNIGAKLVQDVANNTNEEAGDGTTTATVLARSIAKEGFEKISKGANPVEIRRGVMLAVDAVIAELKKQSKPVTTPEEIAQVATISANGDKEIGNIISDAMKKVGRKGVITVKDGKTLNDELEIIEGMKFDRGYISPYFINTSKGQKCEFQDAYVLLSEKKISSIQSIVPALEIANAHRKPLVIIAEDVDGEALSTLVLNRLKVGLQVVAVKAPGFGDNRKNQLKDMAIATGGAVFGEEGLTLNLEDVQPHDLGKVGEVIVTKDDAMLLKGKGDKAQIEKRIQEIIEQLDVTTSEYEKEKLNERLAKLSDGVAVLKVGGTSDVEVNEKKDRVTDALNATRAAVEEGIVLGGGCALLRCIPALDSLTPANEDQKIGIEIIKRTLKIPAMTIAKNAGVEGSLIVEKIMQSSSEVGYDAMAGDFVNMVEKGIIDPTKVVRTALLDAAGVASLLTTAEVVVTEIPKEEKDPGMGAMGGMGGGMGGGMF

Legend:
[1] = biological target: T1, V5-FLAG-tagged L444P β-glucocerebrosidase (GCase) (human) (UniProt P04062); assay: co-IP; anti-FLAG M2 agarose IP of V5-FLAG-GCase from T-Rex HEK lysate (1x TBS pH 7.4, 0.5% NP40), 2 h at 4 °C, FLAG peptide elution, western blot; also after shRNA knock-down of HSC70 or TIM23 (L444P-GCase with LONP1 significantly decreased)
T1 sequence: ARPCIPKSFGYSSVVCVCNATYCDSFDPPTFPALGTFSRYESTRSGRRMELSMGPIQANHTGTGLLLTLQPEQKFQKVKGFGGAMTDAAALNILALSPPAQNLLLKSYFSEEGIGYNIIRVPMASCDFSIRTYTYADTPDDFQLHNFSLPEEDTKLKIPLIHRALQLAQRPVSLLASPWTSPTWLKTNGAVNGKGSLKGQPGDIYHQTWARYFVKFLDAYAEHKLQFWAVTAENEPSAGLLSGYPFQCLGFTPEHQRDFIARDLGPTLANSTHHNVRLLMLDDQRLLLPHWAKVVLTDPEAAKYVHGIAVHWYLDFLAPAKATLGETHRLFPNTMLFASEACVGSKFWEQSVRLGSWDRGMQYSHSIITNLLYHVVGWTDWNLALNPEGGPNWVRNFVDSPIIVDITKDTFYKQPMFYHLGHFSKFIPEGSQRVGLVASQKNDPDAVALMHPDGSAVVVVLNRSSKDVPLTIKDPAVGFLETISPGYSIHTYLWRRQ

[2] = biological target: T2, V5-FLAG-tagged wild-type β-glucocerebrosidase (GCase) (human) (UniProt P04062); assay: as above
T2 sequence: T1 sequence with P444L

[3] = biological target: T3, V5-FLAG-tagged E326K β-glucocerebrosidase (GCase) (human) (UniProt P04062); assay: as above
T3 sequence: T1 sequence with E326K, P444L

[4] = biological target: T4, endogenous L444P β-glucocerebrosidase (GCase) of L444P/L444P NPCs (human (endogenous in iPSC-derived NPCs)) (UniProt P04062); assay: co-IP; endogenous GCase precipitated with GBA MaxPab polyclonal rabbit antibody cross-linked (DSS) to protein A/G magnetic beads, 7 mg NPC lysate overnight, elution at pH 2.0, western blot; normal rabbit IgG as control
T4 sequence: T1 sequence

[5] = biological target: T5, endogenous β-glucocerebrosidase (GCase) of gene-corrected isogenic control NPCs (human (endogenous in iPSC-derived NPCs)) (UniProt P04062); assay: as above
T5 sequence: T1 sequence with P444L

| Substance | binding [1] | binding [2] | binding [3] | binding [4] | binding [5] |
| --- | --- | --- | --- | --- | --- |
| NDUFA10 (from UniProt O95299 36-355) | binds | binds | binds |  |  |
| HSC70 (from UniProt P11142 1-646) | binds | binds | binds |  |  |
| ATP5B (from UniProt P06576 48-529) |  | binds |  |  |  |

The next lines start with the values.

| binding [1] | binding [2] | binding [3] | binding [4] | binding [5] | Substance |
| --- | --- | --- | --- | --- | --- |
| binds | binds | binds |  |  | HSP60 (from UniProt P10809 27-573) |
|  |  |  | binds | binds | HSP60 (endogenous in NPCs) (from UniProt P10809 27-573) |
